Screen size: about 330,000 compounds; about 7,700 (2.3%) were called active. The inconclusive results got no clear call from the source; some entries with a clear call stand among them for comparison. Calls follow the shape of the dose curve; as a rule, active = well fitted inhibition curve with a large enough effect; inconclusive = small, poorly fitted or top-dose-only effect, or effect the other way; inactive = flat fitted curve, though single readings scatter. Where the call is inconclusive, the potency comes from a doubtful curve fit.
assay: qHTS screen for small molecules that inhibit ELG1-dependent DNA repair in human embryonic kidney (HEK293T) cells expressing luciferase-tagged ELG1; details: HEK293T ELG1-luciferase reporter, luminescence, 16 h, DNA damage induced by 5-fluorouridine; activity change, negative = inhibition: at 46.1 µM (top of the series); also: nearly all actives have a fitted effect of over 55% in size
Outline: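 Quantitative HTS, concentration-response format. 2,000 cells/well co-treated with 5-fluorouridine and compound, 16 hr in 5% CO2 at 37 °C; ONE-Glo luminescence read after 30 min.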
% is scaled to controls: 0 for no effect and ±100 for the full control effect; potency is read from the fitted curve at half-maximal effect.

Q: For CCN(C(=O)CSc1ncccc1C(=O)OC(C)C)c1cccc(C)c1, which “activity change, negative = inhibition” value is on record?
A: inactive: -29.3%

Q: For COc1ccc(/C=C/C(=O)NC(=S)NNC(=O)Cc2cccs2)cc1, which Potency is on record?
A: inconclusive: 6.51 µM [activator, partial curve, poor fit]

Q: With CN(C)/C=C1\N=C(c2ccc(Cl)cc2Cl)OC1=O as the compound, how does the Potency read?
A: inconclusive: 23.1 µM [activator, partial curve]

Q: Which Potency does the source give for CC(=O)CSc1nnc(-c2ccc3c(c2)OCO3)o1 here?
A: inconclusive: 5.8 µM [activator, partial curve]

Q: With CCCN1CCN(C(=O)c2cc3c(s2)-c2ccccc2S(=O)(=O)C3)CC1 as the compound, how does the “activity change, negative = inhibition” value read?
A: inactive: 10.1%

Q: For CCCC1(c2ccccc2)NC(=O)N(CC(=O)Nc2cc(OC)cc(OC)c2)C1=O (stereo not given), which “activity change, negative = inhibition” value is on record?
A: inactive: -20.3%

Q: With COc1ccc(NC(=O)CSc2nnc(-c3ccco3)c(-c3ccco3)n2)cc1OC as the compound, how does the Potency read?
A: inconclusive: 23.1 µM [inhibitor, partial curve, poor fit]

Q: With COc1ccc(CNC(=O)c2c(-c3cc(Cl)c(OC)c(Cl)c3)noc2C)cc1 as the compound, how does the Potency read?
A: inconclusive: 25.9 µM [inhibitor, partial curve, poor fit]

Q: Which Potency does the source give for O=C(CSc1nnc(-c2cccnc2)o1)Oc1ccccc1 here?
A: inconclusive: 20.6 µM [activator, single point]

Q: With CC(Oc1ccccc1)c1ccnc2nc(/N=C/N(C)C)nn12 (stereo not given) as the compound, how does the Potency read?
A: inconclusive: 29.1 µM [activator, single point]

Q: With COc1ccc2sc(N(CCCN(C)C)C(=O)c3ccc(S(=O)(=O)N(C)Cc4ccccc4)cc3)nc2c1 as the compound, how does the “activity change, negative = inhibition” value read?
A: inactive: -11.1%

Q: For O=C(Nc1ccccc1N1CCCC1)c1cccc(-c2cc3ccccc3oc2=O)c1, which Potency is on record?
A: inconclusive: 32.6 µM [inhibitor, single point]

Q: Which Potency does the source give for CCOC(=O)N/N=C/c1ccc(F)cc1 here?
A: inconclusive: 20.6 µM [activator, single point]

Q: With Cc1nc2nc(C)c(NS(=O)(=O)c3ccc(CC(C)C)cc3)c(=O)n2[nH]1 as the compound, how does the “activity change, negative = inhibition” value read?
A: inactive: 13.4%

Q: Which Potency does the source give for Cc1ccccc1-c1nc(CS(=O)(=O)CC(=O)NC2CCCCC2C)c(C)o1 (stereo not given) here?
A: inconclusive: 29.1 µM [inhibitor, single point]

Q: For COc1ccc(C(Sc2ccccc2)c2ccccc2)cc1OC (stereo not given), which Potency is on record?
A: inconclusive: 35.5 µM [activator, partial curve, poor fit]

Q: With Nc1ccccc1N=Cc1ccc(-c2cccc(Cl)c2)o1 as the compound, how does the Potency read?
A: inconclusive: 3.26 µM [activator, partial curve]

Q: With Cc1sc2c(c1C)CN(C(C)(C)C)CN2C(=O)c1ccccc1 as the compound, how does the Potency read?
A: inconclusive: 18.4 µM [activator, partial curve]

Q: Which “activity change, negative = inhibition” value does the source give for N#Cc1ccccc1OCC(O)CS(=O)(=O)c1ccccc1 (stereo not given) here?
A: inactive: 4.48%

Q: With COc1ccc(S(=O)(=O)N2CCOCC2)cc1NC(=O)CN1CCC(Cc2ccccc2)CC1 as the compound, how does the Potency read?
A: inconclusive: 18.4 µM [inhibitor, single point]

Q: For Cc1cc(NC(=O)CCCS(=O)(=O)c2nc(-c3cccs3)cc(C(F)(F)F)n2)no1, which Potency is on record?
A: inconclusive: 20.6 µM [inhibitor, single point]

Q: Which “activity change, negative = inhibition” value does the source give for O=C(CN1CCN(C(c2ccccc2)c2ccccc2)CC1)N1CCOCC1 here?
A: inactive: -7.55%

Q: Which Potency does the source give for CC(C)NC(=O)Nc1ccc2c(c1)C(=O)N([C@H](C)CO)C[C@H](C)[C@@H](CN(C)C(=O)NC1CCCCC1)O2 here?
A: inconclusive: 29.1 µM [activator, partial curve, poor fit]

Q: With Cc1ccc(CC2C(=O)N(c3cc(C)ccc3C)C(=O)C2C)cc1 (stereo not given) as the compound, how does the “activity change, negative = inhibition” value read?
A: inactive: -1.05%

Q: With Cc1ccc(C(=O)N2CCCC(C(=O)c3cc(F)ccc3F)C2)s1 (stereo not given) as the compound, how does the “activity change, negative = inhibition” value read?
A: inactive: -1.12%

Q: Which Potency does the source give for COc1ccc(N=Nc2c(N)n[nH]c2N)cc1 here?
A: inconclusive: 29.1 µM [activator, single point]

Q: Which “activity change, negative = inhibition” value does the source give for Cn1cccc1/C=C(/C#N)c1ccc(F)cc1 here?
A: inactive: 5.42%

Q: Which Potency does the source give for Fc1ccc(-c2csc(-c3cccnc3)n2)cc1F here?
A: inconclusive: 18.3 µM [activator, partial curve, poor fit]

Q: For Cc1ccc2oc(-c3ccco3)cc(=O)c2c1, which Potency is on record?
A: inconclusive: 13 µM [activator, partial curve]

Q: Which “activity change, negative = inhibition” value does the source give for COC(=O)COc1ccc2oc(=O)cc(C)c2c1 here?
A: inactive: 5.41%

Q: Which “activity change, negative = inhibition” value does the source give for Cc1cc(F)ccc1NC(=O)C1CCN(C(=O)Nc2ccccc2)CC1 here?
A: inactive: -2.23%

Q: Which Potency does the source give for Cc1noc(C)c1COC(=O)c1cc2c3ccccc3n(C)c2s1 here?
A: inconclusive: 23.1 µM [inhibitor, single point]

Q: Which Potency does the source give for C/C=C\C=C\C(=O)N1CC2(CC(c3cccc(NC(=O)/C(C)=C\C)c3)=NO2)C[C@H]1C(N)=O (stereo not given in full) here?
A: inconclusive: 8.2 µM [inhibitor, partial curve]

Q: For CC1=NN(c2ccc(C(=O)O)cc2)C(=O)/C1=C/c1ccc(-c2ccccc2F)o1, which Potency is on record?
A: inconclusive: 29.1 µM [activator, partial curve, poor fit]

Q: For CCOc1ccc(/C=N/NC(=O)c2ccc(Cn3cc(Br)cn3)o2)cc1, which Potency is on record?
A: inconclusive: 16.4 µM [activator, single point]

Q: With CCOC(=O)C1(Cc2cccc(OC)c2)CCCN(C(=O)c2ccc(OC)o2)C1 (stereo not given) as the compound, how does the Potency read?
A: inconclusive: 14.6 µM [activator, partial curve]

Q: For O=C(CNC(=O)c1cccs1)N/N=C/c1ccccc1[N+](=O)[O-], which Potency is on record?
A: inconclusive: 13 µM [activator, partial curve]

Q: For CC(Cn1cncn1)C(=O)N1CCN(S(=O)(=O)c2ccc(Cl)cc2)CC1 (stereo not given), which “activity change, negative = inhibition” value is on record?
A: inactive: 1.18%

Q: With Cc1ccc(C(=O)NC(=S)NCc2cccnc2)cc1C as the compound, how does the “activity change, negative = inhibition” value read?
A: inactive: -21.5%

Q: For CCOC(=O)N1CCN(CC(=O)Nc2c(C(=O)OC)[nH]c3ccc(Cl)cc23)CC1, which Potency is on record?
A: inconclusive: 10.3 µM [inhibitor, single point]

Q: Which Potency does the source give for CC(=O)Nc1nc(-c2ccc3c(c2)CCO3)cs1 here?
A: inconclusive: 6.51 µM [activator, partial curve]

Q: With CC(C)(C)c1ccc(S(=O)(=O)Nc2ccccn2)cc1 as the compound, how does the “activity change, negative = inhibition” value read?
A: inactive: 17.6%

Q: For CCN(CC(=O)Nc1ccc(S(=O)(=O)N2CCCC2)cc1)Cc1ccccc1, which “activity change, negative = inhibition” value is on record?
A: inactive: -15.1%

Q: For Cc1cccc(C)c1NC(=O)CNC(=O)C1CCCN(C(=O)c2ccc(Cl)cc2)C1 (stereo not given), which Potency is on record?
A: inconclusive: 23.1 µM [inhibitor, partial curve, poor fit]

Q: Which “activity change, negative = inhibition” value does the source give for Cc1ccc(S(=O)(=O)N(CC(=O)Nc2ccccc2C(=O)O)c2ccc(Cl)cc2)cc1 here?
A: inactive: 7.58%

Q: For CCCCCCc1c(C)nc(-n2[nH]c(C)c(CCO)c2=O)[nH]c1=O, which “activity change, negative = inhibition” value is on record?
A: inactive: -3.24%

Q: For CCN1CCCC1CNC(=O)Cn1nc(C)n2c(cc3cc(C)ccc32)c1=O (stereo not given), which “activity change, negative = inhibition” value is on record?
A: inactive: 15.2%

Q: For O=C(NCc1ccco1)c1sc2cc(Cl)ccc2c1Cl, which Potency is on record?
A: inconclusive: 20.6 µM [activator, single point]

Q: For FC(F)(F)c1cccnc1Oc1ccc(C2=NCCS2)cc1, which Potency is on record?
A: inconclusive: 9.2 µM [activator, partial curve, poor fit]

Q: With Cn1cc([N+](=O)[O-])cc1-c1nc2ccccc2n1C as the compound, how does the activity change, negative = inhibition read?
A: inconclusive: 19.7% [activator]

Q: With O=C(Nc1cccnc1)c1ccccc1NS(=O)(=O)c1ccc(F)cc1 as the compound, how does the Potency read?
A: inconclusive: 20.6 µM [inhibitor, single point]

Q: For CCOC(=O)C(C(=O)NCc1ccc(C)cc1)c1ncc(C(F)(F)F)cc1Cl (stereo not given), which Potency is on record?
A: inconclusive: 0.411 µM [inhibitor, partial curve, poor fit]

Q: With CCN(c1ccccc1)S(=O)(=O)c1ccc(C(=O)NCc2ccccn2)cc1 as the compound, how does the Potency read?
A: inconclusive: 14.6 µM [activator, partial curve]

Q: For O=C1CC2(CCN(C(=O)c3ccccc3[N+](=O)[O-])CC2)Oc2ccccc21, which “activity change, negative = inhibition” value is on record?
A: inactive: -4.32%

Q: For CSc1ncc(CN2CCCC(C(=O)c3ccc(C(C)(C)C)cc3)C2)cn1 (stereo not given), which “activity change, negative = inhibition” value is on record?
A: inactive: 22.2%

Q: For CCc1ccc(S(=O)(=O)Nc2cc(SCC(=O)O)c(O)c3ccccc23)cc1, which Potency is on record?
A: inconclusive: 23.1 µM [inhibitor, single point]

Q: With CCN(C(=O)COC(=O)c1c2c(nc3ccccc13)/C(=C/c1ccccc1)CC(C)C2)C1CCS(=O)(=O)C1 (stereo not given) as the compound, how does the Potency read?
A: active: 6.51 µM

Q: For c1ccc(Cn2ccnc2-c2ccco2)cc1, which Potency is on record?
A: inconclusive: 20.6 µM [activator, single point]

Q: Which Potency does the source give for COC(=O)c1ccc(COc2ccc3c(C)c(C)c(=O)oc3c2C)o1 here?
A: inconclusive: 6.51 µM [activator, single point]

Q: With CN(C)CCN(C(=O)c1cccs1)c1nc2cc3c(cc2s1)OCCO3 as the compound, how does the Potency read?
A: inconclusive: 20.6 µM [activator, partial curve]

Q: For S=C(NCc1ccccc1)Nc1ccc2cn[nH]c2c1, which “activity change, negative = inhibition” value is on record?
A: inactive: -13.5%

Q: With CCC[n+]1c2ccccc2cc2ccccc21 as the compound, how does the Potency read?
A: active: 23.1 µM

Q: With CCOc1ccc2[nH]c(C(=O)N/N=C/c3cc(OC)c(OC)c(OC)c3)cc2c1 as the compound, how does the Potency read?
A: inconclusive: 16.4 µM [inhibitor, single point]

Q: For C/C(=N\NC(=O)c1ccoc1C)c1ccccc1, which Potency is on record?
A: inconclusive: 13 µM [activator, partial curve]

Q: With COc1ccccc1CNc1ncnc2c1nnn2Cc1ccccc1 as the compound, how does the Potency read?
A: inconclusive: 25.9 µM [inhibitor, single point]

Q: For Cc1c(C(=O)NCCC2=CCCCC2)cccc1[N+](=O)[O-], which Potency is on record?
A: inconclusive: 25.1 µM [activator, single point]

Q: Which “activity change, negative = inhibition” value does the source give for Cc1ccc2c(c1)c1nc3ccccc3nc1n2CCN1CCOCC1 here?
A: inactive: -27.9%

Q: Which Potency does the source give for CC(C)c1nnc(N2C(=O)C(O)=C(C(=O)c3cccs3)C2c2ccccc2)s1 (stereo not given) here?
A: inconclusive: 11.6 µM [activator, partial curve]

Q: For O=C(NC1CCCC1)c1cc(-c2ccc(F)cc2)on1, which Potency is on record?
A: inconclusive: 8.2 µM [activator, partial curve]

Q: For O=C(NCC(c1ccc(F)cc1)N1CCOCC1)c1ccc([N+](=O)[O-])o1 (stereo not given), which Potency is on record?
A: inconclusive: 5.17 µM [inhibitor, partial curve, poor fit]

Reference: PubChem BioAssay AID504467 (National Center for Advancing Translational Sciences (NCATS), 2011)
